{"source": "paper PMC10846865", "about": "“The Blood-Brain Barrier: Implications for Experimental Cancer Therapeutics” (Annual review of cancer biology, 2023)", "origin": "cited, not measured here", "settings": "cited from earlier work"}
{"molecule": "C[C@H]1c2cccc(O)c2C(O)=C2C(=O)[C@]3(O)C(O)=C(C(N)=O)C(=O)[C@@H](N(C)C)[C@@H]3[C@@H](O)[C@@H]21", "note": "[Doxycyclin]", "values": [{"measurement": "LOD", "setting": "MALDI-MS, CHCA matrix, ref Rapid and widespread distribution of doxycycline in rat brain: a mass spectrometric imaging study.", "value": 100, "unit": "ng/mL"}]}
{"molecule": "CCc1cccc2cc(C(O)CNC(C)(C)C)oc12", "note": "(centres unmarked) [Bufuralol]", "values": [{"measurement": "Detection by MALDI", "setting": "in tissue, ref Mass spectrometry imaging of cassette-dosed drugs for higher throughput pharmacokinetic and biodistribution analysis", "value": "Positive ion mode: m/z 262.2 > 188.1 Not detected by MALDI in tissue, Detected without tissue by MALDI"}]}
